The exact form of at least one protein or probe is not confirmed. At least one result comes from cells or an extract, where the contact may be indirect.
System: ADF-1L, Flag (Miichthys miiuy)
Assay: pull-down
Details: pull-downs: 2 h at 25 C in MKC lysate; protein in a lysate after overexpression; protein details: Flag; label: biotin

Sequence: CTGAGCTGCAGTGGACTATG (double strand) [7SL-motif2]
- binding result: binds

Sequence: CCCTGCAGCTGCAGTTTCAT (double strand) [7SL-motif1]
- binding result: binds

Reference: paper PMC11893794
